Among the data in publication PMC9206684 are binding values, retold here.

These are yes or no findings as the source states them, for the method shown. In cells and extracts the contact can be indirect. Some results given as binding are weak or reduced against the parent protein; the word gives no strength. Sequences can lack the tags named with a protein.

This test concerns the target HA-IGF2BP2 / Myc-IGF2BP2 (human), Q9Y6M1. Nature of the test: co-IP; HA-IGF2BP2 and Myc-IGF2BP2 coexpressed in HEK293T cells, with or without Ct-OATP1B3. As to conditions: remark: other sources report otherwise.

B1: HA-IGF2BP2 / Myc-IGF2BP2, Q9Y6M1 1-599 (protein)
chain: MMNKLYIGNLSPAVTADDLRQLFGDRKLPLAGQVLLKSGYAFVDYPDQNWAIRAIETLSGKVELHGKIMEVDYSVSKKLRSRKIQIRNIPPHLQWEVLDGLLAQYGTVENVEQVNTDTETAVVNVTYATREEAKIAMEKLSGHQFENYSFKISYIPDEEVSSPSPPQRAQRGDHSSREQGHAPGGTSQARQIDFPLRILVPTQFVGAIIGKEGLTIKNITKQTQSRVDIHRKENSGAAEKPVTIHATPEGTSEACRMILEIMQKEADETKLAEEIPLKILAHNGLVGRLIGKEGRNLKKIEHETGTKITISSLQDLSIYNPERTITVKGTVEACASAEIEIMKKLREAFENDMLAVNQQANLIPGLNLSALGIFSTGLSVLSPPAGPRGAPPAAPYHPFTTHSGYFSSLYPHHQFGPFPHHHSYPEQEIVNLFIPTQAVGAIIGKKGAHIKQLARFAGASIKIAPAEGPDVSERMVIITGPPEAQFKAQGRIFGKLKEENFFNPKEEVKLEAHIRVPSSTAGRVIGKGGKTVNELQNLTSAEVIVPRDQTPDENEEVIVRIIGHFFASQTAQRKIREIVQQVKQQEQKYPQGVASQRSK
Turning to B1, the binding entry is given as “binds”.
